Laboratory results reported in publication PMC6446049 (Alzheimer's & Dementia : Translational Research & Clinical …, 2019).

Assay: Plasma pharmacokinetics
Settings: noncompartmental analysis; donepezil 2.5 or 5 mg

In the case of `COc1cc2c(cc1OC)C(=O)C(CC1CCN(Cc3ccccc3)CC1)C2` (stereo not shown) [DPZ, donepezil, reference compound], the “donepezil pharmacokinetic parameters with or without EVP-6124” value is reported as “similar”.
